No constants are given. Whether binding was seen depends on the method and setting. A result given as binding can be weak or reduced; the word gives no strength. Sequences can lack the tags named with a protein.
Molecular target: GAL4 DBD-ALP-1b (C. elegans)
Experiment: two-hybrid; GAL4 DBD and GAL4 AD fusions co-transformed into S. cerevisiae PJ69-4A; growth on SC-Ura-Leu-His plates with 5 mM 5-aminotriazole, 30°C, 4 days

- binding: binds
B1: GAL4 AD-MLC-4 (protein, UniProt Q09510 1-172)
chain: MASRKTVNRRQRPQRATSNVFAMFDQAQIQEFKEAFNMIDQNRDGFIDQEDLKDMFASLGKEVTEQFIDSMINEAPGAQPINFTMFLTLFGEKLTGTDPEEVIRNAFQCFDEDNSGKLNEEHLRELLTTMGERYSEEQVDELFRDAPIKGGQFDYVEFTRMLKHGTKDKDEA

Source: article PMC10752531
